Results as given in PMC7492264.
No constants are given. Whether binding was seen depends on the method and setting. In cells and extracts the contact can be indirect. Some entries that bind do so weakly or less than the wild type. Sequences can lack the tags named with a protein.

Sequences of proteins named here, by UniProt entry; tags and fusion partners are left off. A change or cut given only in a name is not applied to a line headed by its entry. A line that says so, or that is headed by a name, gives the form on record, which may keep a tag or linker. Residues count along the entry.
RNF43(WT), human ring finger protein 43, HA-tagged (Q68DV7, residues 24-783): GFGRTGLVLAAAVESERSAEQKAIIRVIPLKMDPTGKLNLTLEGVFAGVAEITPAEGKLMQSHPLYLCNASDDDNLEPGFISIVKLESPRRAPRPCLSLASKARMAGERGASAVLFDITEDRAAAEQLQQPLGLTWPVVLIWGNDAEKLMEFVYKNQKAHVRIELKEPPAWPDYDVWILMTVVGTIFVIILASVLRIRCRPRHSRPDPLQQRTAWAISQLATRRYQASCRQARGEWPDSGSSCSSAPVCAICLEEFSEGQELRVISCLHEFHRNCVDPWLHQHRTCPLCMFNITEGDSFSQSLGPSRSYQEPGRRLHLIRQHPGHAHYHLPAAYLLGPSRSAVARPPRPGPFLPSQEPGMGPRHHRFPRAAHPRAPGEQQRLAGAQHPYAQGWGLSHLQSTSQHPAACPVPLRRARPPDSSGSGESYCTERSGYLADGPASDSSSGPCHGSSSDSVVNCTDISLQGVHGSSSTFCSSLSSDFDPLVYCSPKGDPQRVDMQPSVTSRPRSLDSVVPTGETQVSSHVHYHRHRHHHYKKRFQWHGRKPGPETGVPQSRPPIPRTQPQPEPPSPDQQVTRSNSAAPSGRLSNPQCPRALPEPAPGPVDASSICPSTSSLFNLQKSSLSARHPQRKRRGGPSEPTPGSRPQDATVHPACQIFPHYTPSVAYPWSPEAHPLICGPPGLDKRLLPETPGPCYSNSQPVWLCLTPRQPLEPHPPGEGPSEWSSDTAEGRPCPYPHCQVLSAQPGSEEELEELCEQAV
RNF43(3SA), human RNF43 S474–476A phosphoresistant mutant, HA-tagged (Q68DV7-1, form named): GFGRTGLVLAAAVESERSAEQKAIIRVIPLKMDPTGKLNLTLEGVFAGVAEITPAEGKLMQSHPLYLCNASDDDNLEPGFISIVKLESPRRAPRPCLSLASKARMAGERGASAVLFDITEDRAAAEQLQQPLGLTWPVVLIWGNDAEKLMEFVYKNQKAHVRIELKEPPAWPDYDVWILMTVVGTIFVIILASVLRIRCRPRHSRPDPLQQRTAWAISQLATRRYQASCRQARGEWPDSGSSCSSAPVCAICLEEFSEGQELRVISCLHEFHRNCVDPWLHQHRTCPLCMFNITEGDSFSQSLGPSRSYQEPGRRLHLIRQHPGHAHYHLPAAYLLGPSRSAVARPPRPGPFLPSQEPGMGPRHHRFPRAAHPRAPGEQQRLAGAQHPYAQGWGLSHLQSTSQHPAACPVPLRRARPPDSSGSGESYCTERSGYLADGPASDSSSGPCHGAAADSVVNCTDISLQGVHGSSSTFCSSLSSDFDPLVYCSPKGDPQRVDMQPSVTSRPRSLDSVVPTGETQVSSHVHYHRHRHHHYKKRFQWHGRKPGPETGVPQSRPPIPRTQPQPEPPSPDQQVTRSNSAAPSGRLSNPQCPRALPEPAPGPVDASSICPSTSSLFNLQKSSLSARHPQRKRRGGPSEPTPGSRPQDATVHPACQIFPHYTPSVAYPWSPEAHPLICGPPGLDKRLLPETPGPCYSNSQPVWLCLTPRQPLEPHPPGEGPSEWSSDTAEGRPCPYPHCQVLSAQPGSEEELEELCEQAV
RNF43(3SD), human RNF43 S474–476D phosphomimetic mutant, HA-tagged (Q68DV7-1, form named): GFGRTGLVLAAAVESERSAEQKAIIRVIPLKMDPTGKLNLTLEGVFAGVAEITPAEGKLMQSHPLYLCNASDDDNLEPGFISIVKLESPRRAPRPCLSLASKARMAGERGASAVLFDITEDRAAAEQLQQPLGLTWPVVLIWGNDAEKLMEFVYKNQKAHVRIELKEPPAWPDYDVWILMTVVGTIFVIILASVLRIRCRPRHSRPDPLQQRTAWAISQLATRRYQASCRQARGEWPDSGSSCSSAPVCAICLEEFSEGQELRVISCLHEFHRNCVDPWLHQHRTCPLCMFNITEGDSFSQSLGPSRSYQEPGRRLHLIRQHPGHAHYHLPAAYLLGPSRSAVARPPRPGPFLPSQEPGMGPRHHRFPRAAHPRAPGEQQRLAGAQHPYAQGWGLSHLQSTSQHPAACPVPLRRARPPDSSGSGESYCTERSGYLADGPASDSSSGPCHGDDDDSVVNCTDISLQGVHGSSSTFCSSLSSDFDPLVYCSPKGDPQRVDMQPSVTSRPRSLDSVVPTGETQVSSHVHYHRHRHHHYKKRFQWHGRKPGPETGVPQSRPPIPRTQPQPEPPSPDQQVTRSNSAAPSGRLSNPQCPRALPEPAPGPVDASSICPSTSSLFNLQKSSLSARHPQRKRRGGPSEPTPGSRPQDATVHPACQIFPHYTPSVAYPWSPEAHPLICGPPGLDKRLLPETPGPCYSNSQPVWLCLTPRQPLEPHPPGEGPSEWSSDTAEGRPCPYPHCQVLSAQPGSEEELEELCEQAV
UniProt P61077: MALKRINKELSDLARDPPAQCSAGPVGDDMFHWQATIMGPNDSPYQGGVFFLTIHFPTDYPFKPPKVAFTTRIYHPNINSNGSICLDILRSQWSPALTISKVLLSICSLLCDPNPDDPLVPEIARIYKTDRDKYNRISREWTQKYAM
UniProt Q9ULT6, residues 56-936: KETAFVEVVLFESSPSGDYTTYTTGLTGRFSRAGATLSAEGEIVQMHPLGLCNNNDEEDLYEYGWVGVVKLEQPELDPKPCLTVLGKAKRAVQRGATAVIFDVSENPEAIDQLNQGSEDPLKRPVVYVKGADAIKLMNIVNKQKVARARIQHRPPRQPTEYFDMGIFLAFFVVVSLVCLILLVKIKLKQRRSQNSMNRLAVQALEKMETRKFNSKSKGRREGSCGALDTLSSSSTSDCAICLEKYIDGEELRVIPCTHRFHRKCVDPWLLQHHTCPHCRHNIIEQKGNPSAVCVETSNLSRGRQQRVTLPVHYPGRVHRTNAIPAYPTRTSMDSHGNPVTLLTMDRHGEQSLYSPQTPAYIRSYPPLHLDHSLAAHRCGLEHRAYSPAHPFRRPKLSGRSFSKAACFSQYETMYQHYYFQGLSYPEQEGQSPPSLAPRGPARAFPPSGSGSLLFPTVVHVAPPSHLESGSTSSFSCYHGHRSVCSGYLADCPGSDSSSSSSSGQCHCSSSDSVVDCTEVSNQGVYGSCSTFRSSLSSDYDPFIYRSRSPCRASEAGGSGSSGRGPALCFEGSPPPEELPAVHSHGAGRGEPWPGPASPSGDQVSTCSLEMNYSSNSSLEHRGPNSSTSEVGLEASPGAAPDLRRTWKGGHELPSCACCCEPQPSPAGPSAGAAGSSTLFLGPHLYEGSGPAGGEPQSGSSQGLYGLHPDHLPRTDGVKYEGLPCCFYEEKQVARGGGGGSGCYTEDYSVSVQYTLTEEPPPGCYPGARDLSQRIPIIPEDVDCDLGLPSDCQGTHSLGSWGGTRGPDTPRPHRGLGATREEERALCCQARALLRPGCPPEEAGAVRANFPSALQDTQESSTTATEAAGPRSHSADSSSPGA
UniProt Q9EQD0, residues 27-585: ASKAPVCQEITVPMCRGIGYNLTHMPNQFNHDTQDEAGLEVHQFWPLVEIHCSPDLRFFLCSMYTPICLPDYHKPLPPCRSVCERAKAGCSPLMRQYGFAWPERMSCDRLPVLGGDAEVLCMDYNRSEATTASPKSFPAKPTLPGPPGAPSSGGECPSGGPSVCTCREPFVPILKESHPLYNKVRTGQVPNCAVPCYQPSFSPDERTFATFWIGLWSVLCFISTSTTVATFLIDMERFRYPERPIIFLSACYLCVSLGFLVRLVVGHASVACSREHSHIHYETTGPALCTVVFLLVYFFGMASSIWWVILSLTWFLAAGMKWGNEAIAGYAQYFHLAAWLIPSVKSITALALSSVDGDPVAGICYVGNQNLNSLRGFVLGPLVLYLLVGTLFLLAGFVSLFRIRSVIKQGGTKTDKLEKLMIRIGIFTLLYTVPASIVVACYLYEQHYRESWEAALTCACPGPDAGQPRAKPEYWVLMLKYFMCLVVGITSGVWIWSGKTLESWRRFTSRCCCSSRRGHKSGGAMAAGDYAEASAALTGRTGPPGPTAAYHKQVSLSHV

Tests used:
Assay in all cases: co-IP; cells expressing the constructs lysed in IP lysis buffer (50 mM Tris-HCl pH 7.6, 150 mM NaCl, 0.7% Triton X-100, phosphatase and protease inhibitors); lysates incubated with the indicated antibodies and protein A-Sepharose, or anti-FLAG-M2 affinity gel or anti-HA agarose beads, 8–12 h; beads washed 5 times; immunoblot
[1] = target: RNF43(3SA), human RNF43 S474–476A phosphoresistant mutant, HA-tagged (human) (UniProt Q68DV7)
[2] = target: RNF43(3SD), human RNF43 S474–476D phosphomimetic mutant, HA-tagged (human) (UniProt Q68DV7)
[3] = target: RNF43(WT), human ring finger protein 43, HA-tagged (human) (UniProt Q68DV7)

| binding [1] | binding [2] | binding [3] | Molecule |
| --- | --- | --- | --- |
| binds | binds | binds | E2 enzyme UbcH5C (from UniProt P61077 1-147) |
| – | binds | – | RNF43(3SD), human RNF43 S474–476D phosphomimetic mutant, HA-tagged (from UniProt Q68DV7-1 24-783) (enzyme) |
| – | – | binds | RNF43(WT), human ring finger protein 43, HA-tagged (from UniProt Q68DV7-1 24-783) (enzyme) |
| binds | – | – | RNF43(3SA), human RNF43 S474–476A phosphoresistant mutant, HA-tagged (from UniProt Q68DV7-1 24-783) (enzyme) |
| binds | binds | binds | ZNRF3, zinc and ring finger protein 3 (from UniProt Q9ULT6-1 56-936) (enzyme) |
| binds | binds | binds | FLAG-mFzd5, mouse Frizzled 5 (from UniProt Q9EQD0 27-585) (receptor) |
| binds | binds | binds | myc-mDvl2, mouse Dishevelled 2 (protein, UniProt Q60838 1-736) MAGSSAGGGGVGETKVIYHLDEEETPYLVKIPVPAERITLGDFKSVLQRPAGAKYFFKSMDQDFGVVKEEISDDNARLPCFNGRVVSWLVSSDTPQPEVAPPAHESRTELVPPPPPLPPLPPERTSGIGDSRPPSFHPNVSSSHENLEPETETESVVSLRRDRPRRRDSSEHGAGGHRPGGPSRLERHLAGYESSSTLMTSELESTSLGDSDEDDTMSRFSSSTEQSSASRLLKRHRRRRKQRPPRMERTSSFSSVTDSTMSLNIITVTLNMEKYNFLGISIVGQSNERGDGGIYIGSIMKGGAVAADGRIEPGDMLLQVNDMNFENMSNDDAVRVLRDIVHKPGPIVLTVAKCWDPSPQAYFTLPRNEPIQPIDPAAWVSHSAALTGAFPAYPGSSSMSTITSGSSLPDGCEGRGLSVHMDMASVTKAMAAPESGLEVRDRMWLKITIPNAFLGSDVVDWLYHHVEGFPERREARKYASGLLKAGLIRHTVNKITFSEQCYYVFGDLSGGCESYLVNLSLNDNDGSSGASDQDTLAPLPGATPWPLLPTFSYQYPAPHPYSPQPPPYHELSSYTYGGGSASSQHSEGSRSSGSTRSDGGAGRTGRPEERAPESKSGSGSESELSSRGGSLRRGGEPGGTGDGGPPPSRGSTGAPPNLRALPGLHPYGAPSGMALPYNPMMVVMMPPPPPPVSTAVQPPGAPPVRDLGSVPPELTASRQSFHMAMGNPSEFFVDVM |
